Results taken from US20190382776.
For at least one entry, the source does not settle the construct or the ends of the probe. Protein sequences can lack the tags named with them.

Target: T1, Cre recombinase (UniProt P06956)
T1 sequence (looked up, limits assumed): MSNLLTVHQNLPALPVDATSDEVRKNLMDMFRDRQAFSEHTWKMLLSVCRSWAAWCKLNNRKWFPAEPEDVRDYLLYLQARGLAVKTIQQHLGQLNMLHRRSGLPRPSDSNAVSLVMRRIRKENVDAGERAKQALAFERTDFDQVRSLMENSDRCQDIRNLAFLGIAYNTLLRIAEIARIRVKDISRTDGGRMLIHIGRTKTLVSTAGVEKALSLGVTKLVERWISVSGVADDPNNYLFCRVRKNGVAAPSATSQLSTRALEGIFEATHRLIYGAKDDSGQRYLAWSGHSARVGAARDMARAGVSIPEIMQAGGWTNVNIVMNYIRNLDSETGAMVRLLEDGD
Test: enzyme reaction in vitro
Settings: in vitro recombination of pLM495 (5 loxPsym sites), 37 C 1 h, NEB buffer; about 28% inversions; about 70% deletions with synIXR-BAC (43 sites); purified recombinant protein; protein details: NEB M0298L / M0298M

## ATAACTTCGTATAATGTACATTATACGAAGTTAT (double strand) [loxPsym]
  activity on this sequence (% colonies with at least one deletion): 27
